## Binding screen against folded nucleic acids

Data from the ROBIN nucleic acid binder screens, doi:10.1002/anie.202211358.

Targets, with sequences 5′ to 3′:
SAM-II: SAM-II riboswitch RNA pseudoknot, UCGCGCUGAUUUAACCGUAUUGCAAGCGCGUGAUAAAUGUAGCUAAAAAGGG. Hit rate about 1% of about 21,000 compounds.
TPP: TPP riboswitch RNA three-way junction, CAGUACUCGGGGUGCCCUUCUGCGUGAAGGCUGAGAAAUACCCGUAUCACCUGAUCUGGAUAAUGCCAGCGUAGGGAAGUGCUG. Hit rate about 0.7% of about 24,000 compounds.
PreQ1: PreQ1 riboswitch RNA pseudoknot, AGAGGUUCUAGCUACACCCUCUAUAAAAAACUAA. From B. subtilis. Hit rate about 0.7% of about 24,000 compounds.

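Each compound is printed as two spots on a slide made to bind it covalently, so it has no test concentration; the read-out is fluorescence of the bound, labelled oligonucleotide. The data file lists only calls. An earlier report of the laboratory on the PreQ1, TPP and SAM-II riboswitches (doi:10.1038/s41467-019-09493-3) used 1 µM RNA for 2 h and required a mean Z-score above 3 (spot signal-to-noise against the whole library), a score well above that on a control array, and duplicate spots agreeing (coefficient of variation under 100); it then also set aside compounds that hit other targets, which this list keeps. The cut-offs behind this list may differ. These are primary screening calls, not affinities; a compound without a hit may have attached poorly or may still bind in solution.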
“hit” means called a hit, “no hit” means screened and not called a hit.
The compounds are a random part of those screened.
A target missing from an entry has no call listed here.

Compound: CCCc1nc(-c2cc3cccc(C)c3nc2NCc2ccccc2OC)no1
TPP: no hit
PreQ1: no hit

Compound: C=CCNc1nc(-c2ccc(OC)cc2OC)cs1
SAM-II: no hit
TPP: no hit
PreQ1: no hit

Compound: Cc1ccc(NC(=O)c2ccc(CN3CCN(C)CC3)cc2)cc1Nc1nc(-c2cccnc2)cs1
SAM-II: no hit
TPP: no hit
PreQ1: no hit

Compound: Cc1cc(C)c(-c2nccc(N3CCC(O)CC3)n2)c(C)c1
SAM-II: no hit
TPP: no hit
PreQ1: no hit

Compound: COc1ccc(NC2=C(C(N)=O)S(=O)(=O)c3ccccc32)cc1
TPP: no hit
PreQ1: no hit

Compound: COc1cc(N2C[C@@H]3CC[C@H](C2)N(Cc2ccccc2)C3=O)nc(N)n1
SAM-II: no hit
TPP: no hit
PreQ1: no hit

Compound: CCn1ccnc1C1CCN(C(=O)C(O)c2ccc(Cl)cc2)CC1 (stereo unspecified)
SAM-II: no hit
TPP: no hit
PreQ1: no hit

Compound: COc1ccc(-c2ccc(F)c(CO)c2)nn1
SAM-II: no hit
TPP: no hit
PreQ1: no hit

Compound: CNC1(C(N)=O)CCNCC1
SAM-II: no hit
TPP: no hit
PreQ1: no hit

Compound: NCC(=O)c1ccc(Cl)cc1Cl
SAM-II: no hit
TPP: no hit
PreQ1: no hit

Compound: O=C(c1ccc(Nc2nc(-c3ccccc3)c3cc(Br)ccc3n2)cc1)N1CCOCC1
SAM-II: no hit
TPP: no hit
PreQ1: no hit

Compound: COc1ccc(-c2nc3cnccn3c2Nc2ccc(C(=O)N3CCCCC3)cc2)cc1OC
TPP: no hit
PreQ1: no hit

Compound: CC(C)OC(=O)C1=C(N)OC2=C(C(=O)CC(C)(C)C2)C1c1ccccc1 (stereo unspecified)
SAM-II: no hit
TPP: no hit
PreQ1: no hit

Compound: CCOC(=O)c1ccccc1NC1OC(=O)c2ccccc21 (stereo unspecified)
SAM-II: no hit
TPP: no hit
PreQ1: no hit

Compound: Cc1nonc1C(=O)N1CCc2ncnc(NC[C@H](O)CO)c2CC1
SAM-II: no hit
TPP: no hit
PreQ1: no hit

Compound: Cc1cc(=O)n(C)c(=O)n1CCCCCCNCCO
SAM-II: no hit
TPP: no hit
PreQ1: no hit

Compound: Cc1cc(C)nc(Nc2ncc(O)n2-c2ccc(Cl)cc2)n1
SAM-II: no hit
TPP: no hit
PreQ1: no hit

Compound: CCCc1nc2nc(C)cc(NCCN3CCN(c4cccc(Cl)c4)CC3)n2n1
SAM-II: no hit
TPP: no hit
PreQ1: no hit

Compound: O=C(O)c1c(CNCC2CCCO2)c2ccccc2n1Cc1ccccc1F (stereo unspecified)
TPP: no hit
PreQ1: no hit

Compound: O=S1(=O)N=C(Nc2ccccc2N2CCCC2)c2ccccc21
SAM-II: no hit
TPP: no hit
PreQ1: no hit

Compound: Cc1ccc(S(=O)(=O)c2nc(C(C)(C)C)oc2NCc2ccccc2)cc1
SAM-II: no hit
TPP: no hit
PreQ1: no hit